# Measurements reported in PubChem BioAssay (EPA / NIEHS).
# By UniProt entry, the sequences of proteins in these tests, tags left out. Where a name states a change or a piece, a line headed by the entry shows the natural chain unless it says otherwise.
# UniProt P19793: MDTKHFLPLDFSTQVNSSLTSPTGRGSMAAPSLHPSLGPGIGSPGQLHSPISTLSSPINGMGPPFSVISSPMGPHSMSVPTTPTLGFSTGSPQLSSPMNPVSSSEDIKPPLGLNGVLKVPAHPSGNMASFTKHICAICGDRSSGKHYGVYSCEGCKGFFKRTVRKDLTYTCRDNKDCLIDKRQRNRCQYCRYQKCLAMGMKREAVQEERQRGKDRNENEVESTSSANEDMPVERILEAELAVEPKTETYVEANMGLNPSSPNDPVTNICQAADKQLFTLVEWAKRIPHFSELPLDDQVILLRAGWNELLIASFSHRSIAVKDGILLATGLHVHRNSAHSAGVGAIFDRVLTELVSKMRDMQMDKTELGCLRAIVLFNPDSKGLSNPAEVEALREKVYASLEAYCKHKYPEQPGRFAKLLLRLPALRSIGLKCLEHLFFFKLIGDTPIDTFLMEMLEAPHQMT
# UniProt P04637, whole entry, looked up: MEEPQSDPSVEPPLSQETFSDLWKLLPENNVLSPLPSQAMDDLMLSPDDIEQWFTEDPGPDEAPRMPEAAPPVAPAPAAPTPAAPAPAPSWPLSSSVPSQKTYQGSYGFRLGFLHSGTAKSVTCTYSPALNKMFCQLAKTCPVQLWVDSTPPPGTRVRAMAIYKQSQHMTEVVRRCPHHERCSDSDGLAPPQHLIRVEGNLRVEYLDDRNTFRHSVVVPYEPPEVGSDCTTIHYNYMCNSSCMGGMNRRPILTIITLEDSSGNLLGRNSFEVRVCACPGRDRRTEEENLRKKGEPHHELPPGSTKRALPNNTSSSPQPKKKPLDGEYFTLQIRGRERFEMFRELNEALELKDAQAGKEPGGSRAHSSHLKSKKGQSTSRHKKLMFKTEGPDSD
# UniProt P37231: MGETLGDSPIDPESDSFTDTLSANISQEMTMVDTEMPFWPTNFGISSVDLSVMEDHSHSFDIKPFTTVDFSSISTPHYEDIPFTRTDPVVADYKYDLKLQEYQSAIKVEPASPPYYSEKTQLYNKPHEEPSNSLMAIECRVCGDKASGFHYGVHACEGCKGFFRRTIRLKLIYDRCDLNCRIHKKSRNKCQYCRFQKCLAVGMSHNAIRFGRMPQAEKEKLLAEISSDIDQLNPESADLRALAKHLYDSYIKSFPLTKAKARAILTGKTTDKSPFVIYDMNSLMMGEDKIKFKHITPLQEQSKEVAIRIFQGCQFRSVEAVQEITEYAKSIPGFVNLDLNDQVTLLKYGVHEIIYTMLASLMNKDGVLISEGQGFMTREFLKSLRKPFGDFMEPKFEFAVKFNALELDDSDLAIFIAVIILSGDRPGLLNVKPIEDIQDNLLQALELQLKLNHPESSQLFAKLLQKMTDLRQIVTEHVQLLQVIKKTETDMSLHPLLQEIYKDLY
# Where “and” joins values, the source holds several entries; their conditions need not be identical. Identical values can stand only once. The shares of active, inactive and inconclusive entries below differ from those in the screen. For some of these results: A potency beside an inconclusive call is a rough fit, not a confirmed value. A structure can be active in one record and inactive in another. Calls of active or inactive are those of the source. Rule for the calls: active = hit-call score of the fitted dose curve at least 0.9, where 1 is the maximum; inconclusive = response in the unintended direction; inactive = score below 0.9.
# Key:
# [1] = molecular target: Retinoic acid receptor RXR-alpha (Homo sapiens) (UniProt P19793); assay: OT_NURR1_NURR1RXRa_0480: Odyssey Thera (OT) 8-hour HEK293T Protein Complementation Assay for Nurr1/retinoid X receptor (RXR) (AID 2283385)
# In short: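 HEK293T cells expressing Nurr1 and RXRα fused to reporter fragments (protein-fragment complementation); fluorescence measured 8 h after dosing. Gain of signal fitted relative to DMSO.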
# [2] = molecular target: Retinoic acid receptor RXR-alpha (Homo sapiens) (UniProt P19793); assay: OT_NURR1_NURR1RXRa_1440: Odyssey Thera (OT) 24-hour HEK293T Protein Complementation Assay for Nurr1/retinoid X receptor (RXR) (AID 2283386)
# In short: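 HEK293T protein-fragment complementation of Nurr1 and RXRα fused to reporter fragments; compounds 24 h. Fluorescence gain from reconstituted reporter fitted versus DMSO.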
# [3] = TOX21_p53_BLA_p2_viability: Viability Assessment in the Tox21 HCT-116 p53 Agonism Beta-lactamase Assay, Phase 2 (AID 2283591);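 note: compound exposure lasted 16 h at 37 °C; actives lower the ATP signal meaning cytotoxicity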
# In short: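 HCT-116 p53-bla cells (4000/well) rested 5 h at 37C, then received compounds in DMSO (217-fold dilution) for 16 h at 37C, 5% CO2. After the CCF4 read, CellTiter-Glo was added; ATP luminescence was read after 30 min at room temperature.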
# [4] = molecular target: Cellular tumor antigen p53 (Homo sapiens) (UniProt P04637); assay: TOX21_p53_BLA_p2_ratio: Tox21 HCT-116 p53 Agonism Beta-lactamase Assay, Ratio, Phase 2 (AID 2283592)
# In short: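 Human colon HCT116 cells with an inducible p53 beta-lactamase reporter are exposed to test chemicals for 16 h at 37C. Reporter induction is read as the 460/530 nm emission ratio after CCF4-AM loading, normalized to DMSO.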
# [5] = TOX21_p53_BLA_p3_viability: Viability Assessment in the Tox21 HCT-116 p53 Agonism Beta-lactamase Assay, Phase 3 (AID 2283593);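 note: cells exposed to compound for 16 h before reading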
# In short: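 HCT-116 cells (4000/well) rested 5 h at 37C, then got DMSO compounds by pin tool (217-fold dilution) for 16 h at 37C, 5% CO2. After the bla read, CellTiter-Glo was added and luminescence read at 30 min, room temperature.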
# [6] = molecular target: Peroxisome proliferator-activated receptor gamma (Homo sapiens) (UniProt P37231); assay: OT_PPARg_PPARgSRC1_1440: Odyssey Thera (OT) 24-hour Protein-Complementation Assay for Peroxisome Proliferator-activated Receptor Gamma/ SRC-1 Co-activator (AID 2283388);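 note: nuclear to cytoplasmic ratio of reconstituted Venus YFP fluorescence in fixed imaged cells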
# In short: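 Cells carrying the PPARg/SRC-1 fragment-complementation reporter receive compound for 24 hours, are fixed and counterstained with Draq5, then imaged. Increased nuclear relative to cytoplasmic YFP fluorescence above DMSO baseline indicates binding activity.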
# [7] = ATG_XTT_Cytotoxicity: Cytotoxicity Assessment in the Attagene TRANS-FACTORIAL HepG2 Assay (AID 2283584);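 for AC50: XTT signal for cell number as viability in transfected HepG2 cells; cells exposed to compound for 24 h before reading; active means loss of viability signal versus DMSO baseline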
# In short: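 24 h chemical exposure of reporter-transfected HepG2; XTT signal loss vs DMSO indicates cytotoxicity.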
# [8] = molecular target: Cellular tumor antigen p53 (Homo sapiens) (UniProt P04637); assay: TOX21_p53_BLA_p3_ratio: Tox21 HCT-116 p53 Agonism Beta-lactamase Assay, Ratio, Phase 3 (AID 2283596)
# In short: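 HCT116 p53-bla cells (4000/well) given compound in DMSO (217-fold dilution) after 5 h, incubated 16 h at 37C. CCF4-AM substrate 2 h at room temperature; 460/530 nm emission ratio, gain fitted against DMSO.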
compound,measurement,setting,value
CCCCCCCCCOS(=O)(=O)O,AC50,[1],inconclusive: 3.36 µM
same,AC50,[2],inconclusive: 12 µM
same,AC50,[3],inconclusive: 46.1 µM
same,outcome,[4],inactive
same,AC50,[5],inconclusive: 46.1 µM
Cc1occc(=O)c1O,AC50,[1],inconclusive: 52 µM and inconclusive: 15.5 µM
same,AC50,[2],inconclusive: 52 µM
same,outcome,[6],inactive
same,outcome,[7],inactive
CCCCC(CC)COP(=O)(OCC(CC)CCCC)OCC(CC)CCCC (stereo unspecified),AC50,[1],inconclusive: 4.96 µM
same,AC50,[2],active: 76.1 µM
same,AC50,[3],inconclusive: 46.1 µM
same,outcome,[3],inactive
same,AC50,[4],inconclusive: 46.1 µM and inconclusive: 46.5 µM
same,AC50,[8],inconclusive: 46.5 µM
CC1CCC(C(C)C)C(O)C1 (stereo unspecified),AC50,[1],inconclusive: 50 µM
same,outcome,[2],inactive
same,AC50,[7],inconclusive: 100 µM
Cc1cc(F)ccc1-c1cc(N2CC[C@@H](O)[C@H]2CO)ncc1N(C)C(=O)C(C)(C)c1cc(C(F)(F)F)cc(C(F)(F)F)c1,AC50,[1],inconclusive: 40.8 µM
same,AC50,[2],active: 9.74 µM
same,AC50,[7],active: 23.3 µM
same,AC50,[3],active: 11 µM
same,AC50,[4],active: 21.8 µM
same,AC50,[5],active: 30.7 µM
same,AC50,[8],active: 45.3 µM
CCCCNS(=O)(=O)c1ccc(C)cc1,AC50,[1],inconclusive: 50 µM
same,outcome,[2],inactive
same,outcome,[3],inactive
same,outcome,[4],inactive
same,AC50,[5],inconclusive: 46.1 µM
O=C(O)[C@H](O)[C@@H](O)C(=O)O,AC50,[1],inconclusive: 83 µM
same,outcome,[2],inactive
same,AC50,[7],inconclusive: 100 µM
CCCCC(CC)COC(=O)CC(C(=O)OCC(CC)CCCC)S(=O)(=O)O (stereo unspecified),AC50,[1],inconclusive: 91.2 µM
same,AC50,[2],inconclusive: 92.4 µM and inconclusive: 87.1 µM
same,AC50,[7],active: 43.8 µM
same,AC50,[3],active: 59.8 µM [middle of 4 runs]
same,AC50,[4],active: 77.1 µM and active: 82.5 µM
same,AC50,[5],active: 71.8 µM and active: 65 µM and active: 42 µM
same,AC50,[8],active: 85.9 µM and active: 83.5 µM
